Test results taken from publication PMC4058079.
Results are given in words; binding and its absence hold for the method and conditions named. In cells and extracts the contact can be indirect. Some binding calls cover weakened binding; strength is not graded here.

By UniProt entry, the sequences of proteins in these tests, tags left out. Residues count along the entry.
UniProt P29317, residues 24-976: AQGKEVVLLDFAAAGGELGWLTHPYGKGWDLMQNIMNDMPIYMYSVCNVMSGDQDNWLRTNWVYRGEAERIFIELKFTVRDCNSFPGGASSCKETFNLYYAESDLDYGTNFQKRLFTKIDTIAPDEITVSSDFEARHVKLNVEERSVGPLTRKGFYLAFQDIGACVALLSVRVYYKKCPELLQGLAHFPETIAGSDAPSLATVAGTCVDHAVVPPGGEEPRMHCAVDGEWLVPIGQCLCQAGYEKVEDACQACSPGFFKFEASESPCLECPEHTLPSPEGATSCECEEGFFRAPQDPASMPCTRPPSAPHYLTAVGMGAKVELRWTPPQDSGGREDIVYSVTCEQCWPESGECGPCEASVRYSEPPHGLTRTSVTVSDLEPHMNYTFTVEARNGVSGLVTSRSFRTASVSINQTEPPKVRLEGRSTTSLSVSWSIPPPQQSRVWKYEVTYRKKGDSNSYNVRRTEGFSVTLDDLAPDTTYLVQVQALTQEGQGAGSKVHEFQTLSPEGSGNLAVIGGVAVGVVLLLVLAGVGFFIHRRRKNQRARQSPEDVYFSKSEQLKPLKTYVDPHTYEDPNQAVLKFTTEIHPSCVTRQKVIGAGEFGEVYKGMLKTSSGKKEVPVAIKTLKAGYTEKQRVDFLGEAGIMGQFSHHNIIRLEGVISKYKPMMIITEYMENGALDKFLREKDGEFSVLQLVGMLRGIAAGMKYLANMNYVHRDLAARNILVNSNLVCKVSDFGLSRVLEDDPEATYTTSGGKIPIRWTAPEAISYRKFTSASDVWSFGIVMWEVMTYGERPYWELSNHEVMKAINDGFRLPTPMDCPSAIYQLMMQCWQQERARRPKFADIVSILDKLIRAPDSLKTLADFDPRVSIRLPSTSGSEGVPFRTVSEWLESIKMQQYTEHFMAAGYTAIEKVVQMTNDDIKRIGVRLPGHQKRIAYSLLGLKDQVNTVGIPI
UniProt P54764, residues 20-986: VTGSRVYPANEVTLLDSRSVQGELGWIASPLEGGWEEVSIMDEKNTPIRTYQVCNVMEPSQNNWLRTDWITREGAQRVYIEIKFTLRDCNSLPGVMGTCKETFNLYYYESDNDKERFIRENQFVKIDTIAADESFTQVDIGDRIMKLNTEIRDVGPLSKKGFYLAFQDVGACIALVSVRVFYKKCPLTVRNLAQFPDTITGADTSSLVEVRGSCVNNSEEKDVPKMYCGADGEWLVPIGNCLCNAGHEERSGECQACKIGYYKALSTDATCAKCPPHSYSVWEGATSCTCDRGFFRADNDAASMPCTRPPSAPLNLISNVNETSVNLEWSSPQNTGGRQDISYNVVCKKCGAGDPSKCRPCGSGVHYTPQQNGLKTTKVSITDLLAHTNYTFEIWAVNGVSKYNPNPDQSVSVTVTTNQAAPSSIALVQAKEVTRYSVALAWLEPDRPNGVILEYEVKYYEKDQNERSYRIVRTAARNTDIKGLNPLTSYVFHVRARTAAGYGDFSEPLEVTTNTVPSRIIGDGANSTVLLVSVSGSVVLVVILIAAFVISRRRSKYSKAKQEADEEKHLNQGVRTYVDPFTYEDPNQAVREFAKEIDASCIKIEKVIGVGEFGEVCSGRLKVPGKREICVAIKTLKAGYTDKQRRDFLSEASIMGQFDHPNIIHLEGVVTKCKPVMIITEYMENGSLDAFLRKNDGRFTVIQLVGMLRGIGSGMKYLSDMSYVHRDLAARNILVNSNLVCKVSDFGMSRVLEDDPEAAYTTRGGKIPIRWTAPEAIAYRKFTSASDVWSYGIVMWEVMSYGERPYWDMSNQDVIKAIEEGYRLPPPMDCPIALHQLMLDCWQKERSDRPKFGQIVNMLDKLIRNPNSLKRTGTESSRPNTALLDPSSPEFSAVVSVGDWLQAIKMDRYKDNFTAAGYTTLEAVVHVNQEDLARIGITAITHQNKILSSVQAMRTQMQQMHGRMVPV

Target: T1, Vav2 (human (endogenous in PC-3)) (UniProt P52735)
T1 sequence: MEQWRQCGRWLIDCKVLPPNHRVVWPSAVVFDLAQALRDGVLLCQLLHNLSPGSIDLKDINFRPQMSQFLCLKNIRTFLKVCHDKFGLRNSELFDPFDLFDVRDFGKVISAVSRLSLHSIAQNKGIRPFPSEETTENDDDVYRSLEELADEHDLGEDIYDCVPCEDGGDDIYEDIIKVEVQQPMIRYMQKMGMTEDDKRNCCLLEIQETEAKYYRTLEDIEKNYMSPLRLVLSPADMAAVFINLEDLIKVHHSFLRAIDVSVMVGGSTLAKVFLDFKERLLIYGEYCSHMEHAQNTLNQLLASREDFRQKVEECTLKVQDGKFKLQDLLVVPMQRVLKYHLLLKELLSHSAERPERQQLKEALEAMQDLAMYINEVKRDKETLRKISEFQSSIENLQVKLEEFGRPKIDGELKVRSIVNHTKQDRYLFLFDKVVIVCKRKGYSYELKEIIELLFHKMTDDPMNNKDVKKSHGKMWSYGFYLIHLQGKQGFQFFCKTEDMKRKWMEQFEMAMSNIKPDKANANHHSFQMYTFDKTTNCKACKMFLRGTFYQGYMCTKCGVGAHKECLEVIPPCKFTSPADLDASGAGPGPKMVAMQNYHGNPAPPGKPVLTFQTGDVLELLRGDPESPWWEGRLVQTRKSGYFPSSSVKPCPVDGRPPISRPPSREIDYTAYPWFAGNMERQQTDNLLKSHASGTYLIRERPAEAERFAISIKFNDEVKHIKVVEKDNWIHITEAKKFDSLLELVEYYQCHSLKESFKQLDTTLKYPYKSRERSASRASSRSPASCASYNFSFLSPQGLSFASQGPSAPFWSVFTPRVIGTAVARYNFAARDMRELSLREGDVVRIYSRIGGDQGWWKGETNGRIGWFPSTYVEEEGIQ
Assay: co-IP; endogenous Vav2 immunoprecipitated (anti-Vav2, Protein A Sepharose, 4°C overnight) from lysates of PC-3 cells treated with clustered ephrin-A5/Fc or Fc control; lysis buffer 125 mM NaCl, 20 mM Tris pH 7.4, 1% Igepal CA-630, 10% glycerol, with sodium orthovanadate; blotted for EphA2 and EphA4

Substance	binding
EphA2 (from UniProt P29317 24-976) (receptor)	binds
EphA4 (from UniProt P54764 20-986) (receptor)	binds
